{
  "source": "paper PMC4948773",
  "about": "“Identification of Preferred DNA-Binding Sites for the Thermus thermophilus Transcriptional Regulator SbtR by the Combinatorial Approach REPSA” (PLoS ONE, 2016)",
  "molecular_target": "T1, SbtR (Thermus thermophilus HB8) (UniProt Q5SLX6)",
  "T1 sequence (looked up)": "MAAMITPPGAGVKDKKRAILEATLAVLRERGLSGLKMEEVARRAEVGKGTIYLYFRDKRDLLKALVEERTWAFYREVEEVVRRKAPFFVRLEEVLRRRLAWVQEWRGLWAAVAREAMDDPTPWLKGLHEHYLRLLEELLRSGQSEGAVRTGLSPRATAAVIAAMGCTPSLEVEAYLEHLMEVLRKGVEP",
  "experiment": "EMSA",
  "settings": "S2 complex, apparent; EMSA/REPA: 50 mM K acetate, 20 mM Tris acetate, 10 mM Mg acetate, BSA (CutSmart), pH 7.9, binding 55 C 20 min (REPA cleavage 37 C); recombinant protein; residues 1-189; label: 5' IRDye700 on strand 1",
  "note": "Protein sequences can lack the tags named with them.",
  "data": [
    {"sequence": "GCCCTGACTGGCCAGTCACCCG (double strand) [SbtR mini probe 22-bp]", "values": [
      {"measurement": "Kd", "value": 30, "unit": "nM"}
    ]}
  ]
}
